No constants are given. Whether binding was seen depends on the method and setting. In cells and extracts the contact can be indirect. Some results given as binding are weak or reduced against the parent protein; the word gives no strength. Sequences can lack the tags named with a protein.
Legend:
[1] = biological target: Pab1 (poly(A)-binding protein) (S. cerevisiae (endogenous in BY4741 background)) (UniProt P04147); assay: proximity ligation; in situ PLA on fixed, Zymolyase-digested yeast cells with antibodies against Pab1 and Flag; cells not treated with 2-DG
[2] = biological target: Pab1 (poly(A)-binding protein) (S. cerevisiae (endogenous in BY4741 background)) (UniProt P04147); assay: proximity ligation; in situ PLA on fixed, Zymolyase-digested yeast cells with antibodies against Pab1 and Flag; cells treated with 400 mM 2-DG for 2 h

The chains behind the UniProt entries cited, without tags or fusion partners.
UniProt P04147: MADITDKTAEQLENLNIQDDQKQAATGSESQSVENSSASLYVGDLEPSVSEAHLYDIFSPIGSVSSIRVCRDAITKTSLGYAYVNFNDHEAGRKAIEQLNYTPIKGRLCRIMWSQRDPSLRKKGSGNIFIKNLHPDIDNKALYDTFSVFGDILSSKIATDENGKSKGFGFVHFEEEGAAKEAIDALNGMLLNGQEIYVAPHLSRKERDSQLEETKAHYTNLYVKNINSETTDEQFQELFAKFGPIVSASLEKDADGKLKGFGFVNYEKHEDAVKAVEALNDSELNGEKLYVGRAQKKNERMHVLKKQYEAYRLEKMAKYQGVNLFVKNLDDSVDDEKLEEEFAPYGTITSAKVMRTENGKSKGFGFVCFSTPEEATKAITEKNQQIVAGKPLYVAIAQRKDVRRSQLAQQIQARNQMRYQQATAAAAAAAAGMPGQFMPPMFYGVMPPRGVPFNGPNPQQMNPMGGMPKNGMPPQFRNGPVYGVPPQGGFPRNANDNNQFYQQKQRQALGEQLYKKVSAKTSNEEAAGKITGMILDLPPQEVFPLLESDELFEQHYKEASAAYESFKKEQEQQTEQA

B1: Lsm7-5xFlag (protein, UniProt P53905 1-115)
chain: MHQQHSKSENKPQQQRKKFEGPKREAILDLAKYKDSKIRVKLMGGKLVIGVLKGYDQLMNLVLDDTVEYMSNPDDENNTELISKNARKLGLTVIRGTILVSLSSAEGSDVLYMQK
binding [1]: no binding (condition: without 2-DG treatment) | binding [2]: binds

Source: publication PMC9240020
